These are yes or no findings as the source states them, for the method shown. In cells and extracts the contact can be indirect. These calls come from enrichment with a bait or labelling near it, and not all partners need be listed. Where a sequence is shown, tags or fusion partners need not be part of it.

Protein sequences, listed by entry. Tags and fused reporters are not part of them.
UniProt Q14839: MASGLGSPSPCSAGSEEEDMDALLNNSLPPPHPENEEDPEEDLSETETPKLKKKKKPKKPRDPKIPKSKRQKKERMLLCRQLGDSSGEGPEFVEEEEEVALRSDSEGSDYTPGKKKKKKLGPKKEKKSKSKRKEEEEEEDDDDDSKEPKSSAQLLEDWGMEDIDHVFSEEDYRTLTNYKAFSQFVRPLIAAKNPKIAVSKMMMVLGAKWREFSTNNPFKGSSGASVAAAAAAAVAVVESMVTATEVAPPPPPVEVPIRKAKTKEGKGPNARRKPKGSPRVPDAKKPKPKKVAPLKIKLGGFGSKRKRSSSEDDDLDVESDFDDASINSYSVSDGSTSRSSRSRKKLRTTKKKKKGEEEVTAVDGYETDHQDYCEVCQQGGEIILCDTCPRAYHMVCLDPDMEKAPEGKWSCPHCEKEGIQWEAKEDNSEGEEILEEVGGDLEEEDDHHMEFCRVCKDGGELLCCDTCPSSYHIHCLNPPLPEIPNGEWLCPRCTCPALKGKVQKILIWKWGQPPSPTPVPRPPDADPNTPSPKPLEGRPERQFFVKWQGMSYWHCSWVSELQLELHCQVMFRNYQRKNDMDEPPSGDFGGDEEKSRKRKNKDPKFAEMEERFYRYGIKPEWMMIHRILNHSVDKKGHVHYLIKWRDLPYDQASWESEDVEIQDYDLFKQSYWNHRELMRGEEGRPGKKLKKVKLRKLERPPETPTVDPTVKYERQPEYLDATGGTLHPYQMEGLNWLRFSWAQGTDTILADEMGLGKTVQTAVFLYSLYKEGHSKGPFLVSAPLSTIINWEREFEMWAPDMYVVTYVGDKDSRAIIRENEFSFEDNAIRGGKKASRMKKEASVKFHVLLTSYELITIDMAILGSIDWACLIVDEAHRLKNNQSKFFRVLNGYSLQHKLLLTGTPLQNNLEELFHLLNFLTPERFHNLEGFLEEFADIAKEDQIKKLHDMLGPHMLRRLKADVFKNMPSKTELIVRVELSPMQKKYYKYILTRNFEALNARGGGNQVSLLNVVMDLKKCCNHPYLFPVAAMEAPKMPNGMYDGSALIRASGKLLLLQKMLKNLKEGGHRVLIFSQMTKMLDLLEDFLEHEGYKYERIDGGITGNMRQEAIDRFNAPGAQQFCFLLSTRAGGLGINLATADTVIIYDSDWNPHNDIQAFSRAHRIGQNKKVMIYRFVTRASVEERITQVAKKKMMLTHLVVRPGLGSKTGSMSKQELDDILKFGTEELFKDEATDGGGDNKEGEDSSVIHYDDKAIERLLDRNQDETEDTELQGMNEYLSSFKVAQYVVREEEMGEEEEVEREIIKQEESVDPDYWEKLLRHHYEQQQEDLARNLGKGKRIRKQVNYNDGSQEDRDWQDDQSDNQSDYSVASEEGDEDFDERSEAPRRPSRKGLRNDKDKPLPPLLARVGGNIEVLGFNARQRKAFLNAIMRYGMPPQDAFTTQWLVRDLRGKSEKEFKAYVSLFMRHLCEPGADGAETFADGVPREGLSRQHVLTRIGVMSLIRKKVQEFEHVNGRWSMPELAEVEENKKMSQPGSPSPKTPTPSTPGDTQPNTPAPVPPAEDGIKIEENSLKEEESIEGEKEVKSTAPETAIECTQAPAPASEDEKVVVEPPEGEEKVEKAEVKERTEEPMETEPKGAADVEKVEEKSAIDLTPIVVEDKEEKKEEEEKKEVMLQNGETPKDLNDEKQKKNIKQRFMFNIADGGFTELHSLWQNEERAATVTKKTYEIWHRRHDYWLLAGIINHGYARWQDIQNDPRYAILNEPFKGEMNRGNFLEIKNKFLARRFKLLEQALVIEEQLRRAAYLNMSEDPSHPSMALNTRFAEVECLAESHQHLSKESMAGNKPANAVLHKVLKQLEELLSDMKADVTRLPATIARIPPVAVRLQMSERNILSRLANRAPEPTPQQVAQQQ
UniProt Q92769: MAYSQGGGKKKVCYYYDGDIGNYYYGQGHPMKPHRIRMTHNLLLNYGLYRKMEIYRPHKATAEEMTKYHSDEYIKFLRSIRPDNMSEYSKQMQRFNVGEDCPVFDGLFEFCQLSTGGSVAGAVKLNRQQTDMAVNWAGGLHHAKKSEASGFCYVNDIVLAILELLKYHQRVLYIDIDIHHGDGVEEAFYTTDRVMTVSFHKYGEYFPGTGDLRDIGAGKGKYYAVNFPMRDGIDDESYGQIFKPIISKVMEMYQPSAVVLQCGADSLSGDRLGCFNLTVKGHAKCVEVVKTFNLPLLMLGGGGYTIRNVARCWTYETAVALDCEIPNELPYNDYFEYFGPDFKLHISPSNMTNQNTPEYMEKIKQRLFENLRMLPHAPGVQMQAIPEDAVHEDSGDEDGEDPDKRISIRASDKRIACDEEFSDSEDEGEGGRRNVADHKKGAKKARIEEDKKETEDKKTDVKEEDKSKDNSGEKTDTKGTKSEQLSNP
UniProt Q13263: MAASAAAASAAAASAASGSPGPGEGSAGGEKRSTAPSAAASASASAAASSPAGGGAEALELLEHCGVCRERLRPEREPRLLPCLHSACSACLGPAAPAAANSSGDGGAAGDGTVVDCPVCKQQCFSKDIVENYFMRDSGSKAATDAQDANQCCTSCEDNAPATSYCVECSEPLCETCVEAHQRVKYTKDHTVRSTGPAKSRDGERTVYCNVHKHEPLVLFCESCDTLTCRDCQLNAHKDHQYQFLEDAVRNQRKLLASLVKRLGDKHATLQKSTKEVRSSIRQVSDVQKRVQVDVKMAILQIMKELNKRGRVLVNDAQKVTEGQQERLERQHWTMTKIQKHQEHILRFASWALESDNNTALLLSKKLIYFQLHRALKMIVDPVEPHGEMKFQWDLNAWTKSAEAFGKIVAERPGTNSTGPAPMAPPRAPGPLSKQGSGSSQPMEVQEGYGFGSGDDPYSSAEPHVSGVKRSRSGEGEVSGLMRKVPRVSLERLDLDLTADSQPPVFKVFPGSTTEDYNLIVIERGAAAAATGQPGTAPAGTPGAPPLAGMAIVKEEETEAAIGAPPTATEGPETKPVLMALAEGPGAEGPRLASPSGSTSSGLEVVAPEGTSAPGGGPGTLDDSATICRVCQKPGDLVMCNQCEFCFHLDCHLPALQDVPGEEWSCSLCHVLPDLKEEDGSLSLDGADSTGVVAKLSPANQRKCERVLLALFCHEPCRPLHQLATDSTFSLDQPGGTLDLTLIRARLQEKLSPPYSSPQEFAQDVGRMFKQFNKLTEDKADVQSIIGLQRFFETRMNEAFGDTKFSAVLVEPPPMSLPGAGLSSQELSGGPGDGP

In the assay the target is T1, TyrRS fused with a streptavidin-binding peptide (SBP) and a calmodulin-binding peptide (CBP) (human) (UniProt P54577).
T1 sequence: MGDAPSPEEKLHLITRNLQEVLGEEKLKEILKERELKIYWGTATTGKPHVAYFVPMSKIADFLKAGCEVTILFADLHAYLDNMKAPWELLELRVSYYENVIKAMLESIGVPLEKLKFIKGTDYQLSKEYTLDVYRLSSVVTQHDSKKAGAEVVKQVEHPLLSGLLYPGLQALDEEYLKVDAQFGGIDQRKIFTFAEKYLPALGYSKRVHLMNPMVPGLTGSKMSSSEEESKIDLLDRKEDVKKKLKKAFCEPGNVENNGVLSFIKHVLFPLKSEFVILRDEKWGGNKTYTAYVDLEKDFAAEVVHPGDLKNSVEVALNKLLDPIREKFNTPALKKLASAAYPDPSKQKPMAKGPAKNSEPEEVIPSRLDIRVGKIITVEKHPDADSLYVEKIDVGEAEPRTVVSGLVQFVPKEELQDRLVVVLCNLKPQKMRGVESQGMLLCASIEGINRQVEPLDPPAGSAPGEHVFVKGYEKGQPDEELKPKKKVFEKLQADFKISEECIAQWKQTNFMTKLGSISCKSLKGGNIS
Briefly: affinity purification with mass spectrometry; tandem affinity purification (TAP-MS): whole cell lysate of HEK293 cells expressing TyrRS with SBP and CBP tags on Streptavidin resin, eluate then on Calmodulin resin; final eluate analysed by mass spectrometry.
Take CHD4 (from UniProt Q14839 1-1912): the binding result is recorded as “binds”.

Regarding HDAC2 (from UniProt Q92769 1-488), the binding result was “binds”.

For the substance TRIM28 (from UniProt Q13263 1-835), the binding entry is “binds”.

The record behind these values is article PMC10592355.
